Microarray screen: hit calls

From ROBIN, a set of small-molecule microarray screens (doi:10.1002/anie.202211358).

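Each compound is printed as two spots on a slide made to bind it covalently, so it has no test concentration; the read-out is fluorescence of the bound, labelled oligonucleotide. The data file lists only calls. An earlier report of the laboratory on the PreQ1, TPP and SAM-II riboswitches (doi:10.1038/s41467-019-09493-3) used 1 µM RNA for 2 h and required a mean Z-score above 3 (spot signal-to-noise against the whole library), a score well above that on a control array, and duplicate spots agreeing (coefficient of variation under 100); it then also set aside compounds that hit other targets, which this list keeps. The cut-offs behind this list may differ. These are primary screening calls, not affinities; a compound without a hit may have attached poorly or may still bind in solution.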 “active” means called a hit, “inactive” means screened and not called a hit. This is an unselected part of the compounds tested. A target missing from an entry has no call listed here.

Targets, with sequences 5′ to 3′:
T1: TPP riboswitch RNA three-way junction, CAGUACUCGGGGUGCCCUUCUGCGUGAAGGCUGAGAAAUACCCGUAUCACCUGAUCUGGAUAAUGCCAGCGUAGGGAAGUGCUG. Hit rate about 0.7% of about 24,000 compounds.
T2: SAM-II riboswitch RNA pseudoknot, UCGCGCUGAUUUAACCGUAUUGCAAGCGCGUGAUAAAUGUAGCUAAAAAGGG. Hit rate about 1% of about 21,000 compounds.
T3: PreQ1 riboswitch RNA pseudoknot, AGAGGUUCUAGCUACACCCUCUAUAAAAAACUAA. From B. subtilis. Hit rate about 0.7% of about 24,000 compounds.

Calls for CC(C)C(=O)c1cc2c(cc1N)OCCO2 are T1: inactive; T2: inactive; T3: inactive.
Calls for O=S(=O)(Nc1nc2ccccc2nc1NCCC1=CCCCC1)c1ccccc1 are T1: inactive; T2: inactive; T3: inactive.
Calls for CCNC(=O)[C@@H]1C[C@H](N)CN1C(=O)c1ccnc(OC)c1 are T1: inactive; T2: inactive; T3: inactive.
Calls for Cc1ccc(S(=O)(=O)CCOC(=O)CNC(=O)OCc2ccccc2)cc1 are T1: inactive; T2: inactive; T3: inactive.
Calls for O=C1CCCN1CCCNc1nc2c(-c3cccc(C(F)(F)F)c3)nnn2c2ccc(Cl)cc12 are T1: inactive; T2: inactive; T3: inactive.
Calls for COc1cccc(NC(c2ccccc2)c2nnc(-c3ccccc3F)o2)c1 (configuration not stated) are T1: inactive; T2: inactive; T3: inactive.
Calls for COCCCNC1=C(C(=O)N2CCOCC2)S(=O)(=O)c2ccccc21 are T1: inactive; T3: inactive.
Calls for CN1[C@H]2CC(OC(=O)C(CO)c3ccccc3)C[C@H]1[C@H]1O[C@H]12 (some centres not stated) are T1: inactive; T2: inactive; T3: inactive.
Calls for CN1CCC2(CC1)CCN(C(=O)NCc1ccco1)CC2CO (configuration not stated) are T1: inactive; T2: inactive; T3: inactive.
Calls for CCC(CO)NCC(O)CN1c2ccccc2Sc2ccccc21 (configuration not stated) are T1: inactive; T2: inactive; T3: inactive.
Calls for NCCc1nc(NCCCNc2cccnc2)c2ccccc2n1 are T1: active; T2: inactive; T3: active.
Calls for Cc1ccc(S(=O)(=O)N(CC(O)Cn2nnc3ccccc32)c2ccccc2)cc1 (configuration not stated) are T1: inactive; T2: inactive; T3: inactive.
Calls for COc1ccccc1Nc1nc2ccc(C)cc2n2cnnc12 are T1: inactive; T2: inactive; T3: inactive.
Calls for CCOC(=O)C1=C(C)OC(N)=C(C#N)C1c1ccccc1Cl (configuration not stated) are T1: inactive; T2: inactive; T3: inactive.
Calls for C=C(C)COc1cccc(CNCCNC(C)=O)c1 are T1: inactive; T2: inactive; T3: inactive.
Calls for Cc1nn(-c2ccccc2)c(C)c1S(=O)(=O)N1C[C@H](C2CC2)[C@@H](N)C1 are T1: inactive; T2: inactive; T3: inactive.
Calls for Cc1ccc(C)c(NCC(=O)Nc2c(C)cccc2C)c1 are T1: inactive; T2: inactive; T3: inactive.
Calls for Cc1nccn1CCCC(=O)N1CC[C@@H](c2ccc3ccccc3c2)[C@H](O)C1 are T1: inactive; T2: inactive; T3: inactive.
Calls for N#Cc1c(-c2ccccc2Cl)cc(C2CC2)nc1N are T1: inactive; T2: inactive; T3: inactive.
Calls for CCOc1ccc(CN(Cc2ccccn2)CC2CCCO2)cc1CO (configuration not stated) are T1: inactive; T2: inactive; T3: inactive.
Calls for CC1C(=O)CCN(CCCO)C1C (configuration not stated) are T1: inactive; T2: inactive; T3: inactive.
Calls for COc1c(C)cc(S(=O)(=O)N[C@@H]2CC[C@@H](N)C2)cc1C are T1: inactive; T2: inactive; T3: inactive.
Calls for CCCc1nc2sc3c(NCCCO)ncnc3c2c2c1COC(C)(C)C2 are T1: inactive; T2: inactive; T3: inactive.
Calls for O=C1CC(NCCc2c[nH]c3ccccc23)C(=O)N1c1ccc(Cl)cc1 (configuration not stated) are T1: inactive; T2: inactive; T3: inactive.
Calls for CC(C)(C)c1ccc(C2c3c(-c4ccccc4O)n[nH]c3C(=O)N2CCO)cc1 (configuration not stated) are T1: inactive; T3: inactive.
Calls for O=C(COc1ccccc1)N1CCN(C(=O)C2CNCCO2)CC1 (configuration not stated) are T1: inactive; T2: inactive; T3: inactive.
Calls for COc1cccc(CC(C)NCc2n[nH]c3c2CCCCC3)c1 (configuration not stated) are T1: inactive; T2: inactive; T3: inactive.
Calls for CCOc1ccccc1[C@H]1C[C@@H](c2ccc(F)cc2)Nc2nc(N)nn21 are T1: inactive; T2: inactive; T3: inactive.
Calls for Cc1ccccc1N1C(=O)C(Oc2ccc(Cl)cc2)C1CNc1ccccc1 (configuration not stated) are T1: inactive; T2: inactive; T3: inactive.
Calls for COc1ccc(Nc2c(-c3ccc(Cl)cc3)c(=O)c2=O)c(OC)c1 are T1: inactive; T3: inactive.
Calls for Nc1ccc(C(=O)N2CCC(c3ccccc3)C2)cc1 (configuration not stated) are T1: inactive; T2: inactive; T3: inactive.
Calls for CCc1noc(N)c1C(=O)Nc1ccc(C)c(Cl)c1 are T1: inactive; T2: inactive; T3: inactive.
Calls for O=C(CN1CCC(c2ccccc2)CC1)NCc1cc2n(n1)CCNC2 are T1: inactive; T2: inactive; T3: inactive.
Calls for CCCCCCCSc1nnc2nc(O)cc(N)n12 are T1: inactive; T2: inactive; T3: inactive.
Calls for Cc1noc(-c2ccc(N3CC[C@@H](NC(=O)c4cnccn4)[C@H](O)C3)nc2)n1 are T1: inactive; T2: inactive; T3: inactive.
Calls for CC1(C)CC(=O)C=C(Nc2ccccc2)C1 are T1: inactive; T2: inactive; T3: inactive.
Calls for Cc1ccccc1NC(=O)Cn1nnc(C(=O)Nc2cccc(F)c2)c1N are T1: inactive; T2: inactive; T3: inactive.